The values that follow come from article PMC2780926.

For the series, the target named is T1, ZBED6 (endogenous) (Mus musculus (C2C12 myoblasts)) (UniProt D2EAC2).
T1 sequence (looked up, limits assumed): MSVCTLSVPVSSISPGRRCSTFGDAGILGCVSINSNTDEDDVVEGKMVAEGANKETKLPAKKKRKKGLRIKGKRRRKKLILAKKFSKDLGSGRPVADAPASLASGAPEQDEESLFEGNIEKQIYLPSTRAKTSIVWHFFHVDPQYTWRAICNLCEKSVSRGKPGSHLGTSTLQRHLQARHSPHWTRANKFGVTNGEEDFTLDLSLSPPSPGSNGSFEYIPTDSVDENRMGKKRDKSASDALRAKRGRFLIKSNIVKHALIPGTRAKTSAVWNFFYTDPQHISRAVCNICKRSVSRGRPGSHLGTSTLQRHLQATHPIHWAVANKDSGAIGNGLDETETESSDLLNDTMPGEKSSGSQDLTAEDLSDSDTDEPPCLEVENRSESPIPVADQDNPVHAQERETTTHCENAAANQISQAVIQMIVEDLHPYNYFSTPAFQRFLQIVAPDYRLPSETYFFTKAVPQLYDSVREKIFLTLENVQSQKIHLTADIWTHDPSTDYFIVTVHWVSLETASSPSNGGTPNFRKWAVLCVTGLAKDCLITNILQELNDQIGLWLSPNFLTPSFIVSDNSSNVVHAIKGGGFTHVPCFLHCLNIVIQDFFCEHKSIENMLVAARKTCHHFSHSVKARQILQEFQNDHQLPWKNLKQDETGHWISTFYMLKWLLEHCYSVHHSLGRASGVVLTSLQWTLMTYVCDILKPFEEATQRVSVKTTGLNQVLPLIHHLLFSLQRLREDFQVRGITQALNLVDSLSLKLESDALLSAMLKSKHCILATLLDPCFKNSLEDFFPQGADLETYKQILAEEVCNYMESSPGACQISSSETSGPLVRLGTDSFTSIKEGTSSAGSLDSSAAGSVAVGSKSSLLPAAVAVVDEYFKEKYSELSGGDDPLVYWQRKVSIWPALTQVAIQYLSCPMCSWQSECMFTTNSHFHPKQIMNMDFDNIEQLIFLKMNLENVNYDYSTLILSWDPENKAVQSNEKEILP
In words: pull-down with SILAC LC-MS. To be noted: poly-dI/dC competitor, pull-down: 50 mM Tris pH 8, 150 mM NaCl, 0.25 mM EDTA, 0.5 mM DTT, 0.1% Tween-20, 0.5 mg/ml BSA, 200 ug/ml poly-dI/dC, RT, protein in an extract, label: 5'-biotin on strand 1.

The exact form of at least one protein or probe is not confirmed. Where cells or extracts were used, other partners may take part. Tags and fusion partners may be left off the protein sequences shown.

With “GATCCTTCGCCTAGGCTCACAGCGCGGGAGCGA (double strand) [IGF2-Q capture oligonucleotide]”, for the setting “two ZBED6 peptides seen in Q sample”, the binding signal (reference for 9.0-fold q/Q enrichment) came out at 1.

“GATCCTTCGCCTAGGCTCGCAGCGCGGGAGCGA (double strand) [IGF2-q capture oligonucleotide]” registered a binding signal (fold enrichment q over Q) (n = 2) of 9.
